Test results reported in the supplement of paper PMC10689618.
Where a name gives a salt, the structure may show the parent alone. The list shows a part of the results. Repeats are few or missing, and single values can be far off.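 Labelled rat cortical synaptosomes were engulfed by primary human fetal astrocytes. Engulfment equaled a red/green ratio, corrected for calcein live-cell signal and normalized to the plate median. Compounds were toxic when calcein dropped over 30%, and reduced phagocytosis when below 70% of the median above 5 µM.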

Legend:
Human fetal astrocytes [1] = assay: loss of total cells relative to no-compound high-control median (toxicity); higher = more toxic (fewer cells); conditions: 24 h
Human fetal astrocytes [2] = assay: synaptosome phagocytosis (pHrodo/calcein intensity ratio) relative to plate median of data wells; higher = more phagocytosis; conditions: 24 h

Row | SMILES | loss of total cells (Human fetal astrocytes [1]; 1.39 µM) | loss of total cells (Human fetal astrocytes [1]; 2.78 µM) | loss of total cells (Human fetal astrocytes [1]; 5.56 µM) | loss of total cells (Human fetal astrocytes [1]; 11.11 µM) | loss of total cells (Human fetal astrocytes [1]; 22.22 µM) | synaptosome phagocytosis (Human fetal astrocytes [2]; 1.39 µM) | synaptosome phagocytosis (Human fetal astrocytes [2]; 2.78 µM) | synaptosome phagocytosis (Human fetal astrocytes [2]; 5.56 µM) | synaptosome phagocytosis (Human fetal astrocytes [2]; 11.11 µM) | synaptosome phagocytosis (Human fetal astrocytes [2]; 22.22 µM)
1 | NCCC(=O)NCCc1c[nH]cn1 [Carcinine dihydrochloride] | -20.2% | -9.9% | -5.1% | -8.5% | -3.4% | 97.4% | 91.6% | 96.7% | 110% | 105%
2 | O=c1onc2n1-c1cc(Br)ccc1OC2 | -27% | 17.6% | 13.6% | 18.1% | -10.3% | 114% | 128% | 145% | 149% | 127%
3 | S=C(Nc1ccccc1)Nc1nccs1 [1-Phenyl-3-(2-thiazolyl)-2-thiourea] | -7.1% | 3.2% | 27.7% | 7.6% | 25.2% | 134% | 105% | 107% | 82.3% | 75.5%
4 | NS(=O)(=O)c1cc2c(cc1Cl)N=CNS2(=O)=O [Chlorothiazide] | -11.7% | -5.7% | -0.5% | -19.3% | -5.6% | 112% | 124% | 94.2% | 98.6% | 109%
5 | COc1ccccc1N1CCN(CCCCNC(=O)c2ccc3ccccc3c2)CC1 | -6.6% | -16.5% | -28.1% | -10.3% | 2.6% | 125% | 116% | 77.1% | 108% | 112%
6 | COC(=O)c1c(-c2cc(OC)c(OC)c(OC)c2)c2ccc(OCc3ccccn3)cc2c(=O)n1-c1ccc(N)cc1 | -12.1% | -14.1% | -21.3% | 1.1% | -12.3% | 113% | 127% | 105% | 121% | 128%
7 | COc1cccc(NC(=O)/C=C/c2ccc(Cl)cc2)c1 | -14% | -20.1% | -16.9% | -6.5% | -0.8% | 108% | 94% | 123% | 107% | 96.6%
8 | CNC(=O)[C@H]1O[C@@H](n2cnc3c(NCc4ccc(N)cc4)ncnc32)[C@H](O)[C@@H]1O | -18.7% | -15.3% | -30.9% | -4.9% | -1.9% | 89.9% | 83.9% | 102% | 96.5% | 115%
9 | Nc1ccn([C@H]2CC[C@@H](CO)O2)c(=O)n1 [2',3'-dideoxycytidine] | -7.9% | -10.3% | 7.4% | 3.1% | 8% | 112% | 124% | 105% | 75.2% | 77.6%
10 | CCOC(=O)C1=C(C)NC(C)=C(C(=O)OC)C1c1cccc(Cl)c1Cl (stereo not given) [Felodipine] | 10.5% | -13.7% | -1.6% | 0.4% | -0.8% | 96.1% | 100% | 102% | 102% | 81.5%
11 | CC(C)(CO)Cc1cc(C(C)(C)C)c(O)c(C(C)(C)C)c1 | -18% | -20.5% | -4.1% | -12.1% | -10.2% | 96.9% | 87.8% | 114% | 109% | 106%
12 | COCC(=O)O[C@]1(CCN(C)CCCc2nc3ccccc3[nH]2)CCc2cc(F)ccc2[C@@H]1C(C)C [Mibefradil dihydrochloride] | 10.9% | 8.6% | -2.3% | 20% | 26.2% | 114% | 91.3% | 72.7% | 82.2% | 46.3%
13 | COc1cc2ncnc(Nc3cccc(Cl)c3)c2cc1OC [Tyrphostin AG 1478] | -23.3% | -25.4% | -14.6% | -27.2% | -23.9% | 111% | 78.6% | 99.6% | 89.9% | 99.6%
14 | CN1CCc2cccc3c2[C@H]1Cc1ccc(O)c(O)c1-3 [Apomorphine hydrochloride hemihydrate] | -13.2% | 1.5% | 1.4% | 3.1% | 4.1% | 71.7% | 98.8% | 82.1% | 66.1% | 32.7%
15 | CSc1nc(N)c2ncn([C@@H]3O[C@H](COP(=O)(O)OP(=O)(O)OP(=O)(O)O)[C@H](O)C3O)c2n1 (stereo not given in full) [2-Methylthioadenosine triphosphate tetrasodium] | -1.1% | -1.2% | -2.3% | 13% | -6.4% | 93.3% | 78.5% | 88.5% | 80.4% | 90.4%
16 | CC(C)(C)[C@]1(O)CCN2C[C@H]3c4ccccc4CCc4cccc(c43)[C@@H]2C1 (racemic) [(±)-Butaclamol hydrochloride] | -12.8% | -5.7% | -25.3% | -18.4% | -11.7% | 79.2% | 79.5% | 76.4% | 75.2% | 76.1%
17 | NC(N)=NCCNS(=O)(=O)c1cccc2cnccc12 [HA-1004 hydrochloride] | -3.8% | -26.5% | -5.8% | -12.1% | -29.6% | 101% | 90.6% | 112% | 122% | 86.5%
18 | CSc1ccc2c(c1)C(N1CCN(C)CC1)Cc1ccccc1S2 (stereo not given) [Methiothepin mesylate] | -1.4% | -9.5% | -5.2% | 3.8% | 41.1% | 126% | 83.6% | 94.4% | 74.8% | 78.7%
19 | Cc1ccc(=O)n(-c2ccccc2)c1 [Pirfenidone] | -21.3% | -5.9% | -13.6% | 16.2% | 15% | 92.4% | 72.8% | 114% | 104% | 134%
20 | COc1ccccc1CNCCCCCCNCCCCCCCCNCCCCCCNCc1ccccc1OC [Methoctramine tetrahydrochloride] | -10.9% | -5.9% | 6.1% | -3.8% | 6.5% | 82.5% | 113% | 87.4% | 62.5% | 89.5%

An excerpt of these results, comma-delimited.
Row,SMILES,loss of total cells (Human fetal astrocytes [1]; 1.39 µM),loss of total cells (Human fetal astrocytes [1]; 2.78 µM),loss of total cells (Human fetal astrocytes [1]; 5.56 µM),loss of total cells (Human fetal astrocytes [1]; 11.11 µM),loss of total cells (Human fetal astrocytes [1]; 22.22 µM),synaptosome phagocytosis (Human fetal astrocytes [2]; 1.39 µM),synaptosome phagocytosis (Human fetal astrocytes [2]; 2.78 µM),synaptosome phagocytosis (Human fetal astrocytes [2]; 5.56 µM),synaptosome phagocytosis (Human fetal astrocytes [2]; 11.11 µM),synaptosome phagocytosis (Human fetal astrocytes [2]; 22.22 µM)
1,NCCC(=O)NCCc1c[nH]cn1 [Carcinine dihydrochloride],-20.2%,-9.9%,-5.1%,-8.5%,-3.4%,97.4%,91.6%,96.7%,110%,105%
2,O=c1onc2n1-c1cc(Br)ccc1OC2,-27%,17.6%,13.6%,18.1%,-10.3%,114%,128%,145%,149%,127%
3,S=C(Nc1ccccc1)Nc1nccs1 [1-Phenyl-3-(2-thiazolyl)-2-thiourea],-7.1%,3.2%,27.7%,7.6%,25.2%,134%,105%,107%,82.3%,75.5%

Additional structures.

Row | SMILES | loss of total cells (Human fetal astrocytes [1]; 1.39 µM) | loss of total cells (Human fetal astrocytes [1]; 2.78 µM) | loss of total cells (Human fetal astrocytes [1]; 5.56 µM) | loss of total cells (Human fetal astrocytes [1]; 11.11 µM) | loss of total cells (Human fetal astrocytes [1]; 22.22 µM) | synaptosome phagocytosis (Human fetal astrocytes [2]; 1.39 µM) | synaptosome phagocytosis (Human fetal astrocytes [2]; 2.78 µM) | synaptosome phagocytosis (Human fetal astrocytes [2]; 5.56 µM) | synaptosome phagocytosis (Human fetal astrocytes [2]; 11.11 µM) | synaptosome phagocytosis (Human fetal astrocytes [2]; 22.22 µM)
21 | Nc1cc(Cl)c(NC2=NCCN2)c(Cl)c1 [p-Aminoclonidine hydrochloride] | -6.2% | -7.5% | -8.8% | -4.9% | 7.9% | 104% | 101% | 112% | 109% | 118%
22 | OC(CN1CCC(Cc2ccc(F)cc2)CC1)c1ccc(Cl)cc1 (stereo not given) [Eliprodil] | 3.8% | -5.1% | -14% | 10.3% | 8.8% | 66.7% | 67.2% | 98.4% | 59.4% | 98.5%
23 | CCc1cccc2c3c([nH]c12)C(CC)(CC(=O)O)OCC3 (stereo not given) [Etodolac] | 2.9% | 2.6% | 11.5% | -1.3% | -5.6% | 76.6% | 100% | 98% | 112% | 73.2%
24 | CC[N+](CC)(CC)CCOc1ccc(/C=C/c2ccccc2)cc1 | -10% | 2.3% | 10.8% | 32.4% | 37.4% | 97.2% | 118% | 89.7% | 89.1% | 56.7%
25 | O=C1NCN(c2ccccc2)C12CCN(CCCC(c1ccc(F)cc1)c1ccc(F)cc1)CC2 [Fluspirilene] | 8.8% | 0.9% | 11.5% | -8.5% | 0% | 81% | 92.7% | 70.6% | 79.2% | 99.4%
26 | CC(C)NC[C@@H](O)COc1ccc(CC(N)=O)cc1 [R(+)-Atenolol] | -9.2% | -12.3% | -15.2% | -11.2% | -11.7% | 93% | 112% | 129% | 102% | 100%
27 | CC(C)[N+]1(C)[C@@H]2CC[C@H]1C[C@@H](OC(=O)C(CO)c1ccccc1)C2 (stereo not given in full) [Ipratropium bromide] | -13% | -16.2% | -15.6% | -25.6% | -10.4% | 99.4% | 86.5% | 125% | 90.6% | 81.1%
28 | O=C(O)/C(=C\c1c(C(=O)O)[nH]c2cc(Cl)cc(Cl)c12)c1ccccc1 | -8.1% | -6.8% | 5.2% | -4.8% | 20.6% | 123% | 136% | 109% | 94.3% | 143%
29 | Cc1ccc(S(=O)(=O)N[C@@H](Cc2ccccc2)C(=O)CCl)cc1 [N-p-Tosyl-L-phenylalanine chloromethyl ketone] | -23.3% | -14.7% | -2.2% | -1.1% | 65% | 82.3% | 111% | 97% | 58.7% | 31.4%
30 | COc1cc(=O)n(C)c2c(OCC(O)C(C)(C)O)cccc12 (stereo not given) [Foliosidine] | 2.9% | -4.3% | 5.8% | 3.1% | 12% | 114% | 130% | 102% | 128% | 142%
31 | [N-]=[N+]=Nc1ccc(C(=O)CSC[C@H](NC(=O)CC[C@H](N)C(=O)O)C(=O)NCC(=O)O)cc1 [S-(p-Azidophenacyl)glutathione] | -8.1% | -4.8% | -11.5% | -7.6% | 1.9% | 118% | 96% | 99% | 82% | 92.6%
32 | COc1cc(C(=O)OCCCN2CCCN(CCCOC(=O)c3cc(OC)c(OC)c(OC)c3)CC2)cc(OC)c1OC [Dilazep hydrochloride] | 9.6% | -14.5% | 4.1% | -2.2% | 10.4% | 103% | 98.3% | 108% | 99.9% | 109%
33 | Cn1cnc2c(NC3CCCC3)ncnc21 [N6-Cyclopentyl-9-methyladenine] | -9% | 3.2% | 20.2% | 2.9% | 25.2% | 126% | 108% | 108% | 108% | 111%
34 | COc1ccc(CCNC[C@@H](O)c2ccc(O)cc2)cc1OC [R(-)-Denopamine] | -14% | 6.3% | -24.7% | -12.6% | -5.8% | 102% | 95.6% | 72.8% | 96.9% | 92%
35 | COc1cc(OC)c(C=C2C(=O)Nc3ccccc32)c(OC)c1 | 2.8% | -17.1% | 6.7% | -0.4% | -16.5% | 94.6% | 102% | 122% | 95.2% | 105%
36 | COc1ccc2c(c1)c(CC(=O)O)c(C)n2C(=O)c1ccccc1 [1-benzoyl-5-methoxy-2-methylindole-3-acetic acid] | -12.8% | -19.2% | -18% | 6.7% | -5.6% | 78.3% | 74.1% | 93.7% | 132% | 84.9%
37 | CNC(=O)[C@H]1O[C@@H](n2cnc3c(NCc4cccc(I)c4)ncnc32)[C@H](O)[C@@H]1O | 3.3% | 18.6% | 8% | 21% | 23.4% | 84.3% | 108% | 113% | 131% | 100%
38 | CCc1c(C)[nH]c2c1C(=O)C(CN1CCOCC1)CC2 (stereo not given) [Molindone hydrochloride] | -2.4% | 3.2% | -0.5% | 14.3% | 13.1% | 107% | 106% | 128% | 114% | 127%
39 | C#CC(N)CCC(=O)O (stereo not given) [gamma-Acetylinic GABA] | -20.2% | -11.1% | 0.5% | -8.5% | 3.4% | 112% | 95.7% | 90.7% | 91.3% | 94.7%
